The supplement of paper PMC11006884
The targets with a hit were mostly taken out for another list; the other results follow. Single values of this set are uncertain. This is a selection; strong and weak results do not stand in their true shares.

Chains of the proteins cited; added tags and fusions are not shown. Lines headed by an entry give the natural chain unless they say otherwise; changes in a name come on top.
UniProt O75369, whole entry, looked up: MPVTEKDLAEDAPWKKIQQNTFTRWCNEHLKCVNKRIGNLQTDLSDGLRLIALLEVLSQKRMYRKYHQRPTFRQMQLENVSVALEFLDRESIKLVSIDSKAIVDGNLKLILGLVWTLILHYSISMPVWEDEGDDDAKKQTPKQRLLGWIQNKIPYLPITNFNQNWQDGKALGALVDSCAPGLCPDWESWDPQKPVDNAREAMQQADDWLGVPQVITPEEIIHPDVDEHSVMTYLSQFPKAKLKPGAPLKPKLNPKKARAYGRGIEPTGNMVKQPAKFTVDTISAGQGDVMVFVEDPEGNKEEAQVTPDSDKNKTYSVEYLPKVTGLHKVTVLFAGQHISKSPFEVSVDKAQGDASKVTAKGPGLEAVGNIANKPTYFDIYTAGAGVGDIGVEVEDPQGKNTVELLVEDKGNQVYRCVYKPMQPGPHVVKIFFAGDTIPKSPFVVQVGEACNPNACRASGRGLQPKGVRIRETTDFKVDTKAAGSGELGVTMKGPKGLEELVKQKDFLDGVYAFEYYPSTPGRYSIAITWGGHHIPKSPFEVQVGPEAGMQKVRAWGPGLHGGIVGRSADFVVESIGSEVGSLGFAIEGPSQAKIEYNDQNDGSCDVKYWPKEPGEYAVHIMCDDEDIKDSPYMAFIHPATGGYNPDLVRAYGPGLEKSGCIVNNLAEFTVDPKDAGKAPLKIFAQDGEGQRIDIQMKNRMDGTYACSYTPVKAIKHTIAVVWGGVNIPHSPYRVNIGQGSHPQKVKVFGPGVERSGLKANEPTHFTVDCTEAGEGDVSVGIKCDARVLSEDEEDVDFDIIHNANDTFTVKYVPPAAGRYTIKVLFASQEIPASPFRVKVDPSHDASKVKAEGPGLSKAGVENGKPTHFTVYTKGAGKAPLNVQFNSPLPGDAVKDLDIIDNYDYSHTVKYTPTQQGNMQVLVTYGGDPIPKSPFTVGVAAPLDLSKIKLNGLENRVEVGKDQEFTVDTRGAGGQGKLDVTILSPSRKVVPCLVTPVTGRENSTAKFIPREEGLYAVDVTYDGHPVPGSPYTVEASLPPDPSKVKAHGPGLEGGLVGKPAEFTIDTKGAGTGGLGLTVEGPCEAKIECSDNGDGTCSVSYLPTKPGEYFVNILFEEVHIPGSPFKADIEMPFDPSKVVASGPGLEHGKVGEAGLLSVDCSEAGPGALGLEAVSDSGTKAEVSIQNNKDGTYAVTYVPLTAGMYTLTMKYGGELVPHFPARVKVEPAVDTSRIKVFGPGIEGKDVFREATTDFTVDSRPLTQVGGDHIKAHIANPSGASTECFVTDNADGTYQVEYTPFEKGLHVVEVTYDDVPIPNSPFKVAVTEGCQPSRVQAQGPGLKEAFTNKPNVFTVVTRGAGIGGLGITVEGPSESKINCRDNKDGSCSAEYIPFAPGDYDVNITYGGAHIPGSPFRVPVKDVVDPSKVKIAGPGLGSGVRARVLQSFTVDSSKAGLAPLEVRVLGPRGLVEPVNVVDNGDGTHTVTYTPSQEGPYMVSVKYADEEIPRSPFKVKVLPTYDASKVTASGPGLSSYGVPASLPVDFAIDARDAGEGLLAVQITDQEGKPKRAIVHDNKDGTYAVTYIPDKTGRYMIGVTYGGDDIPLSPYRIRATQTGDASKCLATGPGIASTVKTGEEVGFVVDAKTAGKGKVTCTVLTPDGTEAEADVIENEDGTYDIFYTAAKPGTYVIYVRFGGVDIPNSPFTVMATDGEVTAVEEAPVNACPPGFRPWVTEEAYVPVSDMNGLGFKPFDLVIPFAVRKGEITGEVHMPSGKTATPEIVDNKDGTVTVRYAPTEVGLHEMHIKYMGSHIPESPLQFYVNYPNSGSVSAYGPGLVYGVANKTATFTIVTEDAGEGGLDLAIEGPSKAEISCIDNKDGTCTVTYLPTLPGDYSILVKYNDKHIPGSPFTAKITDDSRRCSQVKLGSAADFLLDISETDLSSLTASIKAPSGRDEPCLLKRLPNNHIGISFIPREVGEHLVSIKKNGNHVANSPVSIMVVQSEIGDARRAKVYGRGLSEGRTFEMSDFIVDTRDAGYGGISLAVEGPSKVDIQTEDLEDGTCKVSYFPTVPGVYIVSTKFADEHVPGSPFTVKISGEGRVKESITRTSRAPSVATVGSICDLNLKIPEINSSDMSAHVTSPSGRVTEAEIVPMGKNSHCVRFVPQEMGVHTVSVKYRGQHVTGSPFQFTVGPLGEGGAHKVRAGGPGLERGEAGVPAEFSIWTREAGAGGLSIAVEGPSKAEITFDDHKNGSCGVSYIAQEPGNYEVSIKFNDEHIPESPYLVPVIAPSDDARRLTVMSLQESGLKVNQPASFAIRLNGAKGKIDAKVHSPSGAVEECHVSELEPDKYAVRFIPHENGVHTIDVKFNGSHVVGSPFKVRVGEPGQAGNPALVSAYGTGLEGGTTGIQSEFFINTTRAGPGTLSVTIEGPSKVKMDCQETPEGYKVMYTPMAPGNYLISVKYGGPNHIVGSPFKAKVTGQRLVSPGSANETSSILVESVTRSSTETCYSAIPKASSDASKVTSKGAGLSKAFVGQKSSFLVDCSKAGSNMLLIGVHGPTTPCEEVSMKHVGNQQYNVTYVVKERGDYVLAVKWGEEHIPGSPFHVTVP
UniProt O75534: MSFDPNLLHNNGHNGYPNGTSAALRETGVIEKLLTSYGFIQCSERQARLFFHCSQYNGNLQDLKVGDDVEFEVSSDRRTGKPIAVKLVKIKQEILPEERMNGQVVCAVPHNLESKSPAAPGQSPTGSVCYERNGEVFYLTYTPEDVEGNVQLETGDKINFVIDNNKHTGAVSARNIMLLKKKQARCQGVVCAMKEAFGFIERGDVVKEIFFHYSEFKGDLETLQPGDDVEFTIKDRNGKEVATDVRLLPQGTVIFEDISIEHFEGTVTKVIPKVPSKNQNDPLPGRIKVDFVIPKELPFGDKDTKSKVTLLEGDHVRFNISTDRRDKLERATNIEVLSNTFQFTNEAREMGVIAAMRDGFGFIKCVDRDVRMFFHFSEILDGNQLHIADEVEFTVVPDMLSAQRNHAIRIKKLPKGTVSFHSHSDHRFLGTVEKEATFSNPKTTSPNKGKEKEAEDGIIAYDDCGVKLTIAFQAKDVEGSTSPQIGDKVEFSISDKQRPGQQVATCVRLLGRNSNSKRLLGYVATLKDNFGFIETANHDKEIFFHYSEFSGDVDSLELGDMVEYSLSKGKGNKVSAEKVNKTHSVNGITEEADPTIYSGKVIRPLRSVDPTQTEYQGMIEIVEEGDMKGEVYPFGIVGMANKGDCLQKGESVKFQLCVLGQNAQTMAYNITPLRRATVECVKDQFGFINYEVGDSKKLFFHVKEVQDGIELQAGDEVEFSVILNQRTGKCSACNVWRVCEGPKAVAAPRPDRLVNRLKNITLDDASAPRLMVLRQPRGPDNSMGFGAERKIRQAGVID
UniProt O43765: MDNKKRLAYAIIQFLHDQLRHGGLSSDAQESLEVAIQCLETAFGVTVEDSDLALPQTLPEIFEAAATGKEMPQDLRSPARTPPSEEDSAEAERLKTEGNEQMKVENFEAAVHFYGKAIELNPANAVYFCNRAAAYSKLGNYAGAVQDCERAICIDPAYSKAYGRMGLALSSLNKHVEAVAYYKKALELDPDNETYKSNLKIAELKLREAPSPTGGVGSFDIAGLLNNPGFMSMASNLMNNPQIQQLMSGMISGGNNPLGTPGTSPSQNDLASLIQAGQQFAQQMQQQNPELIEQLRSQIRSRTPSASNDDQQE
UniProt O60232: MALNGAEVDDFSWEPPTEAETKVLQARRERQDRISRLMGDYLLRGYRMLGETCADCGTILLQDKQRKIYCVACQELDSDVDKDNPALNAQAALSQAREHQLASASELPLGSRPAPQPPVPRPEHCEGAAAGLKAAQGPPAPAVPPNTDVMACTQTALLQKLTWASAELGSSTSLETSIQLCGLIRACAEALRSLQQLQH
UniProt O75153: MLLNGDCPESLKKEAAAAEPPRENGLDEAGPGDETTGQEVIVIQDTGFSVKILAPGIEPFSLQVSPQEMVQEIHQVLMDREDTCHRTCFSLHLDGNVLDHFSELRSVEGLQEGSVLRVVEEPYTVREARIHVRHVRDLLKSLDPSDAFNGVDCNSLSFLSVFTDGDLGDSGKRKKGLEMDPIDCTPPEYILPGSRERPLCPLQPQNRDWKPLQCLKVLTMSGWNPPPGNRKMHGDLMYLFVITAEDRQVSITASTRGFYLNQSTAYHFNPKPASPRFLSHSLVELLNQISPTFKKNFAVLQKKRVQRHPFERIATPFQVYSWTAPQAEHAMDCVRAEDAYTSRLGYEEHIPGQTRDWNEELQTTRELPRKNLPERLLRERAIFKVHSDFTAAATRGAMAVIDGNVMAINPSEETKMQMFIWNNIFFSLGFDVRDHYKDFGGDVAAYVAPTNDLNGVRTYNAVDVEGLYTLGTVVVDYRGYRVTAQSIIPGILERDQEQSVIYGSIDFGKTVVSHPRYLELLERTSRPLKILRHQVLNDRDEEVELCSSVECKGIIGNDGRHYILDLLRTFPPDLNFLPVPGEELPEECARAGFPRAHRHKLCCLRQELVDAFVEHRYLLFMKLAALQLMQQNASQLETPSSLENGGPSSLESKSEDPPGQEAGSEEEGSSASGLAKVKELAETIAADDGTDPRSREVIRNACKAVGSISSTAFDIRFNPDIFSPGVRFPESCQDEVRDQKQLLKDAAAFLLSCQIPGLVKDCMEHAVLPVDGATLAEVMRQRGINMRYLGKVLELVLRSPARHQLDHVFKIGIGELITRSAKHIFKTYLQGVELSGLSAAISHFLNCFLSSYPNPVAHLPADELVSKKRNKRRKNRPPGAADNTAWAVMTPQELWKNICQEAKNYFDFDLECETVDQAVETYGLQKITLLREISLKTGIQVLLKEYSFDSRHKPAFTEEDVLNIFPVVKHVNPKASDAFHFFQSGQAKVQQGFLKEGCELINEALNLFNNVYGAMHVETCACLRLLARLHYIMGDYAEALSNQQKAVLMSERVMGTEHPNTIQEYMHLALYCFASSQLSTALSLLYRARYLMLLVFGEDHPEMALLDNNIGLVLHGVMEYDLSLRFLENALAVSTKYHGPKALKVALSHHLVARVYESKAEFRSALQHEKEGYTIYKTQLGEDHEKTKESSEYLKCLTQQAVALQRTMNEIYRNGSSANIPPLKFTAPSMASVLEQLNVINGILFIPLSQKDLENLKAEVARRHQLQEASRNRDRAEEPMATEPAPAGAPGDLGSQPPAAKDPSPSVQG
UniProt O43679: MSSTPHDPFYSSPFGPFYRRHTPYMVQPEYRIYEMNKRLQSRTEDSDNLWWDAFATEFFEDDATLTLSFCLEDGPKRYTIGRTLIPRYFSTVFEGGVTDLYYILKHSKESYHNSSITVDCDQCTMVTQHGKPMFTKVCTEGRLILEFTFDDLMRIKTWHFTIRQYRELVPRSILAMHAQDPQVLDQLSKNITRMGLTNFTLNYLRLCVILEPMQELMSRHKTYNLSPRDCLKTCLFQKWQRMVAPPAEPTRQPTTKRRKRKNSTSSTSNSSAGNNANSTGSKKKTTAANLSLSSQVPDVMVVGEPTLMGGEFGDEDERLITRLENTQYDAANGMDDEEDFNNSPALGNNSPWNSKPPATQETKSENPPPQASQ
UniProt O60256: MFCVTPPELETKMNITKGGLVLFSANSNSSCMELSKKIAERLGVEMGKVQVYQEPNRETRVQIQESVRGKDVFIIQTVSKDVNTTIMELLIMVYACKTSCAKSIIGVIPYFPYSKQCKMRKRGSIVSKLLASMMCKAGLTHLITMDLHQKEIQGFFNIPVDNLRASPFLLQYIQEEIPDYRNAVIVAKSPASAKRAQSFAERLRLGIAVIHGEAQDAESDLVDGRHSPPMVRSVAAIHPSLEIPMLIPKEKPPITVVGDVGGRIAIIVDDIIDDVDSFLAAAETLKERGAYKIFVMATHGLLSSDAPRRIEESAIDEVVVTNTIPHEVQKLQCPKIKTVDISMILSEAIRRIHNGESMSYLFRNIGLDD
UniProt O75347: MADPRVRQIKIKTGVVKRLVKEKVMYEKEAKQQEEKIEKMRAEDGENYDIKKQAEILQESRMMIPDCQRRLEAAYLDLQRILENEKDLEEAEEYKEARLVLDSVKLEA
UniProt O60551: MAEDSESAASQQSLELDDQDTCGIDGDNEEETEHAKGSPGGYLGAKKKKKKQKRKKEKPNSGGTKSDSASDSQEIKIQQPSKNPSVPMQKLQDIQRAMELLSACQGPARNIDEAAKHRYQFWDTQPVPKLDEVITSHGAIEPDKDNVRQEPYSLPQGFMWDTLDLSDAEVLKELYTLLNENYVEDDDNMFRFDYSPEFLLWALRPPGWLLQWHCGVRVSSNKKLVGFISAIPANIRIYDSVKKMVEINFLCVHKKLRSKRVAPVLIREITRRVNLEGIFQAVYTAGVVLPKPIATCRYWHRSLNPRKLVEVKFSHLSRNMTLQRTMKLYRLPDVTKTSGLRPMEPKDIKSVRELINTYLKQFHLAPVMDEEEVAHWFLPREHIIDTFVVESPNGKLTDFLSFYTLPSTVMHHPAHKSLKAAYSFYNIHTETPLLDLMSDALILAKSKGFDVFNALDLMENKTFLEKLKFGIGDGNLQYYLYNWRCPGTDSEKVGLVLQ

These targets were tested with COC(=O)/C=C/c1ccccc1 [methyl cinnamate] (assay: log2 ratio of iodoacetamide-alkyne labeling of the cysteine site, DMSO over compound (competition); higher = stronger covalent engagement of the cysteine by the compound, active = 1 or more). Conditions: 500 µM; treatment time 1 h; system: HEK293T cell lysate.
Summary of the method: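 HEK293T lysate (2 mg/mL) was treated with DMSO or electrophile (500 µM, 1 h, ambient temperature), then iodoacetamide alkyne (1 h), clicked to sCIP-TMT reagents, pooled, trypsin-digested overnight at 37 °C, streptavidin-enriched and acid-eluted. Peptides were run on Orbitrap Eclipse LC-MS/MS with FAIMS and quantified in FragPipe. The log2 competition ratio per cysteine is mean control-channel over mean compound-channel reporter intensity. Duplicate channels and three replicates were used, and cysteines quantified in only one replicate were excluded.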

| Target | log2 ratio of iodoacetamide-alkyne labeling |
| --- | --- |
| FLNB C660 (UniProt O75369) | inactive: -0.000467 |
| CSDE1 C42 (UniProt O75534) | inactive: 0.0415 |
| HTATSF1 C480 (UniProt O43719) | inactive: 0.254 |
| DNAJB6 C275 (UniProt O75190) | inactive: 0.0514 |
| SGTA C129 (UniProt O43765) | inactive: 0.232 |
| AKAP8 C275 (UniProt O43823) | inactive: 0.213 |
| KPNA6 C467 (UniProt O60684) | inactive: 0.141 |
| ROCK2 C607 (UniProt O75116) | inactive: 0.465 |
| NPM3 C105 (UniProt O75607) | inactive: 0.0963 |
| UniProt O60232_C152 | inactive: 0.394 |
| RNF40 C890 (UniProt O75150) | inactive: 0.299 |
| RECQL5 C664 (UniProt O94762) | inactive: 0.472 |
| UniProt O75153_C333 | inactive: -0.227 |
| IDH1 C379 (UniProt O75874) | inactive: 0.31 |
| ZW10 C588 (UniProt O43264) | inactive: -0.0612 |
| USO1 C678 (UniProt O60763) | inactive: 0.0329 |
| SORBS3 C521 (UniProt O60504) | inactive: 0.126 |
| EVI5 C451 (UniProt O60447) | inactive: 0.148 |
| FLNB C455 (UniProt O75369) | inactive: 0.432 |

Taken from above:
Value of DNAJB6 C275 (UniProt O75190) under log2 ratio of iodoacetamide-alkyne labeling: inactive: 0.0514
Value of IDH1 C379 (UniProt O75874) under log2 ratio of iodoacetamide-alkyne labeling: inactive: 0.31

Further entries follow:

| Target | log2 ratio of iodoacetamide-alkyne labeling |
| --- | --- |
| PPFIA2 C143 (UniProt O75334) | inactive: -0.191 |
| PAPSS1 C212 (UniProt O43252) | inactive: -0.0115 |
| UniProt O43679_C207 | inactive: 0.0988 |
| PAPSS1 C207 (UniProt O43252) | inactive: 0.253 |
| UniProt O75934_C106 | inactive: 0.0549 |
| PRPSAP2 C31 (UniProt O60256) | inactive: -0.033 |
| WDHD1 C1008 (UniProt O75717) | inactive: 0.143 |
| HNRNPR C292 (UniProt O43390) | inactive: 0.123 |
| XPOT C650 (UniProt O43592) | inactive: 0.127 |
| SRP72 C349 (UniProt O76094) | inactive: -0.356 |
| TBCA C67 (UniProt O75347) | inactive: 0.249 |
| SNRNP200 C2011 (UniProt O75643) | inactive: 0.0166 |
| SNRNP200 C428 (UniProt O75643) | inactive: 0.131 |
| OFD1 C581 (UniProt O75665) | inactive: -0.046 |
| PLOD3 C691 (UniProt O60568) | inactive: 0.208 |
| FLNB C1280 (UniProt O75369) | inactive: -0.203 |
| NMT2 C104 (UniProt O60551) | inactive: 0.279 |
| BUB3 C129 (UniProt O43684) | inactive: 0.0956 |
